PubChem BioAssay AID504793 – Drosophila RNAi Screening Center | 2011
Test: 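Whole-genome screen for parts of the DNA damage checkpoint at G2/M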 (primary screen). System: Drosophila S2R+ cells. Knock-down reagent: long dsRNA against Drosophila genes, about 0.25 µg dsRNA per well. Timing: 4 days of dsRNA, then 4 hours of drug before read-out. Treatment: doxorubicin 0.5 µM for 4 hours to cause double-strand breaks, in cells also given a low, harmless dose of dsRNA against nbs to sensitise the assay. Measurement: 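Per-well count of mitotic cells stained for phospho-histone H3 after doxorubicin exposure, used as mitotic index; counts are raw and not normalised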. Scale: mitotic cells: higher = more cells in mitosis, weaker G2 arrest. Call rule: 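a call needs confirmation in secondary tests, with other dsRNAs and a check of mitotic timing without damage, not just a high primary count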. Calls: active = confirmed in follow-up tests; inactive = not confirmed.
The screen tested about 23,000 reagents; shown is an unselected part of those with a known target gene and a result. Of all reagents, 62 (0.27%) are marked active. 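Calls come from follow-up tests whose scores are not deposited, so confirmed genes may have low counts here; counts are not normalised per plate.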 Raw values vary from plate to plate and are shown uncorrected. A number with no mark means an inactive call. Names joined by + are all predicted targets of the reagent.

Silencing of CG14538 (retired record) (GeneID 34056) [DRSC02396] gave: mitotic cells, replicate 1 = 4.
Silencing of CG14538 (retired record) (GeneID 34056) [DRSC29424] gave: mitotic cells, replicate 1 = 11.
With knock-down of RAF2 (GeneID 39821) [DRSC10443], the record shows mitotic cells, replicate 1 = 11.
Against RAF2 (GeneID 39821) [DRSC10454], the values are mitotic cells, replicate 1 = 2.
After knock-down of RAF2 (GeneID 39821) [DRSC26436], the screen gave mitotic cells, replicate 1 = 12.
Silencing of CG17959 (GeneID 31288) [DRSC18142] gave: mitotic cells, replicate 1 = 8.
With knock-down of CG17959 (GeneID 31288) [DRSC28767], the screen gave mitotic cells, replicate 1 = 8.
Against chp (GeneID 43690) [DRSC16925] the deposit lists mitotic cells, replicate 1 = 3.
With knock-down of chp (GeneID 43690) [DRSC26106] the results were mitotic cells, replicate 1 = 2.
Osi1 (GeneID 40752) [DRSC12271] scored mitotic cells, replicate 1 = 5.
For ko (GeneID 40330) [DRSC11893], the values are mitotic cells, replicate 1 = 3.
ko (GeneID 40330) [DRSC26598] showed mitotic cells, replicate 1 = 8.
Against lobo (GeneID 4379864) [DRSC14662], the values are mitotic cells, replicate 1 = 15.
With knock-down of lobo (GeneID 4379864) [DRSC14663], the screen gave mitotic cells, replicate 1 = 7.
Knock-down of lobo (GeneID 4379864) [DRSC29681] gave: mitotic cells, replicate 1 = 7.

A portion from the list above, as a working copy:
RAF2 (GeneID 39821) [DRSC26436] — mitotic cells, replicate 1 = 12
CG17959 (GeneID 31288) [DRSC18142] — mitotic cells, replicate 1 = 8

The results go on.
Knock-down of Eato (GeneID 34783) [DRSC01891] came out at: mitotic cells, replicate 1 = 6.
Eato (GeneID 34783) [DRSC03061] gave mitotic cells, replicate 1 = 5.
Knock-down of PheRS-m (GeneID 36547) [DRSC05915] came out at: mitotic cells, replicate 1 = 5.
CG2260 (GeneID 31732) [DRSC18223] showed mitotic cells, replicate 1 = 8.
Against CG2260 (GeneID 31732) [DRSC28536], the entry reads mitotic cells, replicate 1 = 4.
CG1812 (GeneID 33049) [DRSC20557] gave mitotic cells, replicate 1 = 4.
For CG1812 (GeneID 33049) [DRSC26769], the entry reads mitotic cells, replicate 1 = 7.
CG10324 (GeneID 42028) [DRSC14230] gave mitotic cells, replicate 1 = 1.
After knock-down of CG18809 (GeneID 59170) [DRSC19818], the screen gave mitotic cells, replicate 1 = 4.
For CG18809 (GeneID 59170) [DRSC24451] the deposit lists mitotic cells, replicate 1 = 1.
Knock-down of unc80 (GeneID 43324) [DRSC15329] came out at: mitotic cells, replicate 1 = 6.
For Mondo (GeneID 35402) [DRSC02668] the deposit lists mitotic cells, replicate 1 = 13.
Mondo (GeneID 35402) [DRSC22006] gave mitotic cells, replicate 1 = 6.
For Mondo (GeneID 35402) [DRSC26287] the deposit lists mitotic cells, replicate 1 = 5.
With knock-down of CG4983 (GeneID 34585) [DRSC02799] the results were mitotic cells, replicate 1 = 3.
Depletion of CG4983 (GeneID 34585) [DRSC26444] resulted in: mitotic cells, replicate 1 = 8.
Against Or33c (GeneID 34603) [DRSC03388] the deposit lists mitotic cells, replicate 1 = 6.
Cfp1 + CG17440 [DRSC29926] showed mitotic cells, replicate 1 = 13.
After knock-down of His3:CG33818 + His3:CG33857 + His3:CG33806 + 20 more [DRSC21267], the screen gave mitotic cells, replicate 1 = 5.
